Experimental data taken from paper PMC9213445.
No constants are given. Whether binding was seen depends on the method and setting. In cells and extracts the contact can be indirect. Some results given as binding are weak or reduced against the parent protein; the word gives no strength.

Protein sequences, listed by entry. Tags and fused reporters are not part of them.
UniProt P31153: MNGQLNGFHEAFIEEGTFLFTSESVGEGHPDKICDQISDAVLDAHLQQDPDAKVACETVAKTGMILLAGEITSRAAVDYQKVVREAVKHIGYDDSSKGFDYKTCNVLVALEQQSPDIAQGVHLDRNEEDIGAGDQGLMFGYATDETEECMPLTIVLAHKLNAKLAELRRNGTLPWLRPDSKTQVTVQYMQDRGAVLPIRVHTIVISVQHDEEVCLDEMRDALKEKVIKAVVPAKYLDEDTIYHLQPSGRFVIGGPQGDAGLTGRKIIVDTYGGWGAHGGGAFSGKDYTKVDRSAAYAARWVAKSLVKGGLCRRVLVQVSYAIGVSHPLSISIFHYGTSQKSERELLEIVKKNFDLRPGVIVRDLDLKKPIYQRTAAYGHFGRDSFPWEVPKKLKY

Biological target: T1, VCIP135 (endogenous, immunoprecipitated) (UniProt Q96JH7)
T1 sequence: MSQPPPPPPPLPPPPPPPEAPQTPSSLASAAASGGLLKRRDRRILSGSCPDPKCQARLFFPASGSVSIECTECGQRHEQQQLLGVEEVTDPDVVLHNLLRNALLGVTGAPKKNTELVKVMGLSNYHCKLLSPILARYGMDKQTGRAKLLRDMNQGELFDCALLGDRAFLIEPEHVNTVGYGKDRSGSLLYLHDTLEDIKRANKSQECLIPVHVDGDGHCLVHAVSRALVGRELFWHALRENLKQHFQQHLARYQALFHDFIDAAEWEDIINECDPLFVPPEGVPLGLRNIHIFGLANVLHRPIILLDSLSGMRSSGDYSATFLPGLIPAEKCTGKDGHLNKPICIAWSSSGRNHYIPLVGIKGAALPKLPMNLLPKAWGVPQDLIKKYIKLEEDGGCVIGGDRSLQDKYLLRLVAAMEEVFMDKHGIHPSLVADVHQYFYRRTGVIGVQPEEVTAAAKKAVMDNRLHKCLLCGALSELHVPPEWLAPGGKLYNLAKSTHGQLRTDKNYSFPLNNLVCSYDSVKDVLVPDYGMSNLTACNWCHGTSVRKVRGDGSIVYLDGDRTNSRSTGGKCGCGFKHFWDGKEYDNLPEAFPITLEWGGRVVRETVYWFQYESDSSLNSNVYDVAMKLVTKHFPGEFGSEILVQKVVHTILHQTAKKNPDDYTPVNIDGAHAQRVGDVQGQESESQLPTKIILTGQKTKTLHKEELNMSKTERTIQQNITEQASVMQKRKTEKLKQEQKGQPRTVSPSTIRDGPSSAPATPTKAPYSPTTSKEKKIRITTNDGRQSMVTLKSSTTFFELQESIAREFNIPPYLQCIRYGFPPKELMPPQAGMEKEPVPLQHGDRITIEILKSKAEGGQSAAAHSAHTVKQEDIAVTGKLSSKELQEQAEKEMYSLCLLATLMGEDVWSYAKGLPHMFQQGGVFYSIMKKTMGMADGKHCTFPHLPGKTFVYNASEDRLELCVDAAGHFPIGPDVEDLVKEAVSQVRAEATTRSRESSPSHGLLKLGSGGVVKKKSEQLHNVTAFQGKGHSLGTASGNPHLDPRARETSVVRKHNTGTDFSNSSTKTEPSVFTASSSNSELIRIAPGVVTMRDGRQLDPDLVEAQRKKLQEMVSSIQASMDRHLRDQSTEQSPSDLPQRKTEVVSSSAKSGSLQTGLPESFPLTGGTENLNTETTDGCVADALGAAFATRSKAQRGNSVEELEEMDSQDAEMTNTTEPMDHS
Assay: co-IP; endogenous VCIP135 immunoprecipitated (anti-VCIP135, CST 88153S, Protein G agarose) from lysate in 0.3% Nonidet P40 buffer (150 mM NaCl, 50 mM Tris-HCl, pH 7.5); immunoblot for MATIIα

binding: binds
Substance: MATIIα (endogenous) (from UniProt P31153 1-395) (enzyme)
